Test results taken from the supplement of paper PMC4683952.
This is one part of the list. No stated cut-off is given here; in the data, active = 2 or more and inactive = the rest. Most values lie within the scatter of the assay; repeated measurements hardly agree.

Tested on: Lgr5 (MarsCy1-Lgr5-EGFP, U2OS)
Experiment: cell-surface Lgr5 expression (SCi1 fluorescence, background-subtracted) relative to WT DMSO (fold of DMSO control); higher = more Lgr5 at the plasma membrane
Details: U2OS MarsCy1-Lgr5-EGFP stable; treatment time: overnight; library: ActiProbe-5K (TimTec); 25 µM

| Structure (SMILES) | cell-surface Lgr5 expression |
| --- | --- |
| COc1ccc(C2CC(c3cc(OC)cc(OC)c3)=NC(=N)N2)cc1 (centres undefined) | inactive: 1.37 |
| C(S\C(=C(\C#N)C#N)NCC=C)c1ccncc1 | inactive: 1.11 |
| CC1(C)CC2CC(C)(CN2c2ncnc3ccc(Br)cc23)C1 (centres undefined) | inactive: 0.586 |
| CCn1cc(/C=C\C(=O)c2ccc(C)o2)cn1 | inactive: 1.32 |
| COc1cc2nc(SCc3nc4ccccc4n3C)[nH]c2cc1OC | inactive: 1.31 |
| C=CC[C@H]1CC(C)=C[C@@H](CC=C)N1C(C)=O | inactive: 1.05 |
| N/C(=N/N=C/c1cccn1-c1ccc(S(N)(=O)=O)cc1)c1nonc1N | inactive: 1.14 |
| Brc1ccc(N/N=N\c2ccccc2)cc1 | inactive: 1.01 |
| O=C1CCCCc2sccc2N1 | inactive: 1.17 |
| CSCCC(C(=O)O)N1C(=O)/C(=C2/C(=O)Nc3ccc(Br)cc32)SC1=S (centres undefined) | inactive: 1.23 |
| COc1ccc(C2Sc3ccccc3N=C3C2=C(O)c2ccccc23)cc1OC (centres undefined) | inactive: 1.15 |
| O=[N+]([O-])c1ccc2c(c1)OC1(CCCC1)O2 | inactive: 0.986 |
| Cc1sc(/C=C(/C#N)C(N)=S)cc1Br | inactive: 1.56 |
| Nn1c(CO)nnc1SCc1cc(Cl)cc2c1OCOC2 | inactive: 0.968 |
| CN(C)S(=O)(=O)NC1CCCCCC1 | inactive: 1.09 |
| Cc1ccc(C2C(C#N)=C(N)Oc3[nH]nc(C)c32)s1 (centres undefined) | inactive: 1.04 |
| Cc1ccc(/C=N/n2nnnc2N)s1 | inactive: 0.982 |
| N[C@@H]1c2ccccc2C[C@@H]1O | inactive: 1.21 |
| C/N=c1\sc(C(=O)OC)cc(=O)n1C | inactive: 1.02 |
| COc1ccc(C=O)cc1CSC1=NCCS1 | inactive: 1.48 |
| Cn1c(=O)oc2ccc(S(=O)(=O)Nc3ccc4c(c3)n(C)c(=O)n4C)cc21 | inactive: 1.15 |
| Cn1nnnc1SCC(=O)NC(C)(C)C | inactive: 1.33 |
| Cn1c(SC2CCOC2=O)nc2ccccc2c1=O (centres undefined) | inactive: 1.42 |

Structures from the list above with an NH in an aromatic ring (two):

| Structure (SMILES) | cell-surface Lgr5 expression |
| --- | --- |
| COc1cc2nc(SCc3nc4ccccc4n3C)[nH]c2cc1OC | inactive: 1.31 |
| Cc1ccc(C2C(C#N)=C(N)Oc3[nH]nc(C)c32)s1 (centres undefined) | inactive: 1.04 |

Later entries:

| Structure (SMILES) | cell-surface Lgr5 expression |
| --- | --- |
| O=C(O)c1c2c(nc3c1cnn3C1CCCC1)CCC2 | inactive: 1.05 |
| Clc1ccc(Nc2ccc(-n3ccnc3)nn2)cc1 | inactive: 1 |
| NCC(O)CN1CCOCC1 (centres undefined) | inactive: 1.38 |
| c1ccc(-n2c(SCc3nc4ccccc4[nH]3)nc3ccccc32)cc1 | inactive: 1.3 |
| c1ccc(C(Sc2nc3ccccc3s2)c2ccccc2)cc1 | inactive: 1.08 |
| CCn1cc(-c2cc[nH]n2)c(C)n1 | inactive: 1.05 |
| N#C/C(=C\c1ccc(Br)s1)C(N)=S | inactive: 1.04 |
| O=[N+]([O-])c1ccc2[nH]c(C(F)(F)F)nc2c1 | inactive: 1.07 |
| O=S(=O)(NC12CC3CC(CC(C3)C1)C2)c1cccs1 | inactive: 1.24 |
| CNc1nc(C(N)=O)c(NC(=O)C23CC4CC(CC(C4)C2)C3)s1 | inactive: 1.43 |
| O=S1(=O)N=C(OCc2ccccc2)c2ccccc21 | inactive: 1.12 |
| CCCCc1ccc(C2=C(C#N)C(N)=C(C#N)C3=CCCCC32)s1 (centres undefined) | inactive: 1.45 |
| C=CCNS(=O)(=O)c1cc(S(=O)(=O)NCC=C)c(OC)cc1OC | inactive: 1.16 |
| CC(C)(C)c1ccc(CSc2nsc(SCc3ccc(C(C)(C)C)cc3)c2C#N)cc1 | inactive: 1.13 |
| CN(CCC#N)S(=O)(=O)c1ccc2sc(=O)[nH]c2c1 | inactive: 1.07 |
| NC(=O)c1c(N)sc2c1C1CCN2CC1 | inactive: 1.28 |
| NC(=O)Cn1cc([N+](=O)[O-])nc1Cl | inactive: 1.1 |
| O=[N+]([O-])c1coc2c(Cl)c(Cl)c(O)cc12 | inactive: 1.14 |
| O=C(N/N=C/c1ccc[nH]1)c1ccc(C(=O)N/N=C/c2ccc[nH]2)o1 | inactive: 1.41 |
| O=[N+]([O-])c1ccc(Cl)c(N2CCCC2)c1 | inactive: 1.13 |
| N#Cc1c(C(F)(F)F)cc(-c2cccs2)oc1=S | inactive: 1.35 |
| Brc1ccc(-c2nn3c(-c4ccccn4)nnc3s2)o1 | inactive: 1.03 |
| C1CN(C2CCC3SC2CCC3N2CCOCC2)CCO1 (centres undefined) | inactive: 1.12 |

| Structure (SMILES) | cell-surface Lgr5 expression |
| --- | --- |
| CC(=O)CC(=O)N1CCOCC1 | inactive: 1.27 |
| COC(=O)CCCC[C@@H]1SC[C@@H](N)[C@H]1O | inactive: 1.1 |
| Cn1c(=O)oc2ccc(S(=O)(=O)Nc3ccc4c(c3)CCN4S(C)(=O)=O)cc21 | inactive: 1.02 |
| C=CCn1c(N)c(C(N)=O)sc1=S | inactive: 0.939 |
| CNC(=S)Nc1ccc(Br)cc1 | inactive: 1.73 |
| O=C1CCC(C(=O)NCC23CC4CC(CC(C4)C2)C3)N1 (centres undefined) | inactive: 1.16 |
| COc1cc(C2SCCS2)cc([N+](=O)[O-])c1O | inactive: 1.11 |
| CC(C)(C)CC(=O)NC(=S)N(C1CCCCC1)C1CCCCC1 | inactive: 0.968 |
| C=C(C)C[C@@H]1Cc2c(Br)cccc2[C@@H](CC(=C)C)N1.Cl | inactive: 1.23 |
| Nc1cc(O)cc([N+](=O)[O-])c1 | inactive: 0.538 |
| CC(C)C(O)(C(=O)OC[C@@H]1CCN2CCC[C@@H]12)C(C)O (some centres undefined) | inactive: 1.21 |
| N#C/C(=C/Sc1ccccc1F)C(=N)N | inactive: 1.14 |
| CC1(C)SCC(C(=O)O)N1C=O (centres undefined) | inactive: 0.864 |
| CN1CCc2cc(CO)sc2C1 | inactive: 1.19 |
| O=[N+]([O-])c1ccc2c(c1)oc1ccc(S(=O)(=O)N3CCOCC3)cc12 | inactive: 0.91 |
| O=C1NC(=S)S/C1=C\c1ccsc1 | inactive: 1.01 |
| CCOC(NC(C)=O)C(NC(C)=O)OCC (centres undefined) | inactive: 1.39 |
| CN1C(=O)C(CCCNC(=N)N)NC1=S (centres undefined) | inactive: 0.907 |
| Cn1cc([N+](=O)[O-])c(C(=O)O)n1 | inactive: 1.3 |
| CC(CN1CCOCC1)C(=O)NN (centres undefined) | inactive: 1.17 |
| c1n[nH]c(NCc2ccc3c(c2)OCO3)n1 | inactive: 1.21 |
| O=c1[nH]c2ccc(S(=O)(=O)N3CCCC3)cc2[nH]1 | inactive: 1.38 |
| Fc1cccc2c1N[C@@H](c1c3ccccc3cc3ccccc13)[C@H]1CC=C[C@@H]21 | inactive: 1.04 |
